Measurements published in PubChem BioAssay AID1487 (National Center for Advancing Translational Sciences (NCATS), 2009).
Some of the results follow. Shown are side measurements of this screen, not its main read-out; they come without a call. The list favours compounds with an active or inconclusive main result. Words in brackets tell the shape of the fitted curve; partial curves, single points and poor fits give uncertain potencies.

Experiment: qHTS Assay for Modulators of Lamin A Splicing
Conditions: HeLa LMNA splicing GFP/RFP minigene ratio, 48 h
How it was run: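 S3 HeLa cells stably expressing lamin A-EGFP splicing minigene plus DsRed2, 600 cells/well, 48 h compound exposure at 37C. Laser-scanning cytometry; analysed as GFP (500-530 nm)/RFP (575-640 nm) total intensity ratio; 0.5% DMSO vehicle.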

[1] = measured here: RFP viability control channel
[2] = measured here: GFP splicing reporter channel

Structure (SMILES)	AC50 [1]	AC50 [2]
CCOC(=O)c1[nH]c2ccc(Br)cc2c1NC(=O)CCN1CCCCC1	12.6 µM [rising, single point]	
CC(=O)OCC1OC(OC(C)=O)C(NC(=O)Cc2ccccc2)C(OC(C)=O)C1OC(C)=O (centres undefined)	14.1 µM [rising, partial curve]	
C/C(=N\OCC(=O)Nc1nc2ccccc2s1)c1ccccc1	3.55 µM [rising, single point]	4.47 µM [rising, single point]
O=C(Nc1ccc(OC(F)F)c(Cl)c1)C(c1ccccc1)c1ccccc1	17.8 µM [rising, single point]	
COc1cccc(C(c2nnnn2CCc2ccccc2)N2CCN(c3ccccc3)CC2)c1OC (centres undefined)	20 µM [rising, partial curve, poor fit]	
COc1cc(NC(=O)Cn2nc(-c3ccc(F)cc3)ccc2=O)ccc1-n1cnnn1	35.5 µM [rising, single point]	
Cc1ccc(NC(=O)c2c(NC(=O)CCC(=O)O)sc3c2CCCCC3)cc1		28.2 µM [falling, single point]
COc1cccc(NC(=O)C(=O)NCc2ccncc2)c1	0.00447 µM [rising, full curve, poor fit]	
COc1ccc(-n2c(COc3cccc4ccccc34)nnc2SCC(=O)NCc2ccco2)cc1	35.5 µM [rising, single point]	
O=C(CCl)Nc1ccc(N2CCCCCC2)cc1	17.8 µM [falling, partial curve]	
COc1ccc(CNC(=O)c2ccc(CN3C(=O)C(C)=C(c4ccc(C)cc4)S3(=O)=O)cc2)cc1	0.631 µM [falling, full curve]	0.631 µM [falling, partial curve]
CCN(CC)S(=O)(=O)c1ccc(C(=O)NCc2nnc(SCC(=O)OC)n2C)cc1	2.82 µM [rising, partial curve, poor fit]	3.16 µM [rising, partial curve]
Cc1c(Cl)cccc1NC(=S)NCc1ccc2c(c1)OCO2		0.00891 µM [rising, full curve, poor fit]
Cc1ccc(C)c(NC(=O)c2ccccc2NS(=O)(=O)c2cc([N+](=O)[O-])ccc2C)c1	2.82 µM [rising, partial curve]	
CCN(C(=O)COC(=O)c1ccc(Br)o1)C1CCCCC1	0.0447 µM [rising, full curve, poor fit]	
c1ccc(CC2CCN(C3=Nc4cccc5cccc3c45)CC2)cc1	5.62 µM [rising, partial curve]	
Nc1c(C(=O)N/N=C/c2cccnc2)cnn1-c1ccccc1		3.98 µM [rising, single point]
O=C(Nc1nc(-c2ccc(F)cc2)cs1)C1CCCO1 (centres undefined)	31.6 µM [rising, single point]	14.1 µM [rising, single point]
COc1ccc(C(=O)Nc2nc(C)c3cc4c(cc3n2)OCO4)cc1	14.1 µM [rising, single point]	

Random excerpt: 3 entries already listed
Structure (SMILES)	AC50 [1]	AC50 [2]
c1ccc(CC2CCN(C3=Nc4cccc5cccc3c45)CC2)cc1	5.62 µM [rising, partial curve]	
CCN(C(=O)COC(=O)c1ccc(Br)o1)C1CCCCC1	0.0447 µM [rising, full curve, poor fit]	
COc1cccc(C(c2nnnn2CCc2ccccc2)N2CCN(c3ccccc3)CC2)c1OC (centres undefined)	20 µM [rising, partial curve, poor fit]	

Remaining list, next part:

Structure (SMILES)	AC50 [1]	AC50 [2]
COc1cccc(-c2nc(NCc3ccccc3)c3ccccc3n2)c1	12.6 µM [falling, partial curve]	20 µM [falling, single point]
Cc1cccc(C(=O)N/N=C/c2ccc(OC3CSC3)cc2)c1	5.62 µM [falling, full curve]	3.98 µM [falling, full curve, poor fit]
COc1cc(/C=N/n2cnn(Cc3ccccc3Cl)c2=S)cc(OC)c1OC		35.5 µM [falling, single point]
Oc1ccc(N2CCN(C(=S)NCCc3ccccc3)CC2)cc1		1.58 µM [falling, full curve, poor fit]
Cc1ccc(CNC(=O)c2cn(C3CCCCC3)c(=O)c3c2c2ccccc2n3C)o1		28.2 µM [rising, single point]
Cc1cccc(S(=O)(=O)Nc2cccc3c2C(=O)c2ccccc2-3)c1	35.5 µM [rising, single point]	
COc1cccc(NC(=O)Nc2ccc(Cc3ccncc3)cc2)c1	35.5 µM [rising, single point]	
CCSc1nc(=S)n(Cc2ccccc2)c(C)c1C(C)=O	15.8 µM [rising, single point]	14.1 µM [rising, single point]
O=C(CNC1CCCCCC1)Nc1ccccc1N1CCOCC1		3.55 µM [rising, single point]
C/C(=N\NC(=O)CCCNc1ccc(C)cc1)c1ccccn1	14.1 µM [rising, partial curve]	11.2 µM [rising, partial curve, poor fit]
Cc1cc(C)nc(NN=C(c2ccccc2)c2ccccc2)n1	25.1 µM [rising, single point]	14.1 µM [rising, single point]
O=c1c(O)c(-c2ccccc2)oc2ccccc12	25.1 µM [falling, single point]	12.6 µM [falling, partial curve]
CC(=O)NCCNC(=O)c1ccc(-n2c(C)ccc2C)cc1		35.5 µM [rising, single point]
CC(C)N=c1scc(-c2cccs2)n1/N=C/c1ccc(O)c(O)c1O	28.2 µM [falling, single point]	20 µM [falling, single point]
c1ccc(C(c2ccccc2)N2CCN(c3nc4ccccc4n4cnnc34)CC2)cc1	8.91 µM [rising, partial curve]	8.91 µM [rising, partial curve]
CCC(=O)Nc1cccc(NC(=S)NC(=O)c2ccc(Cl)cc2Cl)c1	35.5 µM [rising, single point]	
COc1ccc(CCNc2ncnc3c2c(-c2ccccc2)cn3-c2ccc(Cl)cc2)cc1OC		14.1 µM [falling, single point]
CS(=O)(=O)N(CC(=O)NCc1ccco1)c1cccc([N+](=O)[O-])c1	0.2 µM [falling, full curve, poor fit]	
